Measurements taken from patent EP1037653B1, “COMPOSITIONS AND METHODS FOR REGULATING PHAGOCYTOSIS AND ICAM-1 EXPRESSION” (JOHNSON & JOHNSON CONSUMER COMPANIES, INC., priority 1997, dated 1999).
Part of at least one peptide drawing is inferred or uncertain, most often the ends. Where no end group is shown, it is not given here.

Assays:
[1] = tested on: Human white facial skin samples grafted on immuno-suppressed mice; assay: Pigmentation of human skin grafted on immuno-suppressed mice (SLIGRL); type: in vivo
[2] = tested on: human primary keratinocytes; assay: Fluorescent microsphere ingestion (phagocytosis), fluorescence microscopy; type: cell-based; settings: treated two days; Compound I 1µM, SLIGRL 10µM; vs vehicle control; Figure 1
Keratinocytes [3] = assay: F-actin staining, cytoskeletal organization; type: cell-based; settings: Compound I 10 nM, STI 0.1 mg/ml, SLIGRL 5 µM; Figure 9
[4] = tested on: human keratinocyte cell line HaCaT; assay: Fluorescent microsphere ingestion (phagocytosis), fluorescence microscopy; type: cell-based; settings: Figure 2, repeated at least three times
[5] = tested on: Primary melanocyte cultures plated under epidermal equivalents (EpiDerm); assay: Melanosome transfer (pigmentation) in equivalent-monolayer co-culture without keratinocyte-melanocyte contact; type: cell-based; settings: no keratinocyte/melanocyte contact
ICAM-1 [6] = assay: ICAM-1 immunofluorescent staining of keratinocytes; type: cell-based, human; settings: vs untreated keratinocytes; Figure 6A
[7] = tested on: fibroblast cell line 92-3T3; assay: Fluorescent microsphere ingestion (phagocytosis); type: cell-based; settings: vs untreated fibroblasts; Figure 3
Keratinocytes [8] = assay: Scanning electron microscopy of cell podia; type: cell-based; settings: treated two days; vs vehicle-treated controls; Figure 8
MelanoDerm equivalents = assay: Melanosome transfer (pigmentation) in melanocyte-containing equivalents; type: cell-based; settings: same result in monolayer co-cultures with keratinocyte/melanocyte contact
Human keratinocytes [9] = assay: Timing of effect on keratinocyte microsphere phagocytosis; type: cell-based; design: key: +: Plus signs indicate an effect on phagocytosis; -: minus signs indicate no effect on phagocytosis; -/+: plus/minus signs indicate a marginal effect on phagocytosis; settings: decrease for Compound I, increase for SLIGRL
Keratinocytes [10] = assay: Melanin uptake by keratinocytes, Fontana-Mason staining; type: cell-based; settings: treated two days; melanin powder two hours; Figure 5A; same results with isolated melanosomes (Figure 5B)
[11] = tested on: macrophage cell line IC-21; assay: Fluorescent microsphere ingestion (phagocytosis); type: cell-based; settings: IC-21 macrophages
Human keratinocytes [12] = assay: Keratinocyte microsphere phagocytosis dose-response, image analysis of fluorescent beads; type: cell-based; settings: two days; SLIGRL 0, 5 and 10 µM; Compound I 1pM to 1µM; STI 0.01 to 1 mg/ml
ICAM-1 [13] = assay: ICAM-1 immuno-precipitation and Western blotting in keratinocytes; type: cell-based; settings: treated keratinocytes; Figure 6B
melanocytes = assay: Fluorescent microsphere ingestion (phagocytosis); type: cell-based; settings: which do not express PAR-2
[14] = tested on: macrophage cell line IC-21; assay: Vybrant Phagocytosis Assay Kit, ingestion of fluorescein-labeled E. Coli K-12 particles; type: cell-based

For SLIGRL [SLIGRL], the “visual appearance of grafts” value ([1]; 50 µM SLIGRL topical, daily, 5 days/week, last weeks of treatment, Figure 7A) was “Darkening”, the “melanin in F&M-stained sections” value ([1]; 50 µM SLIGRL, day 66, Figure 7B) was “increase in melanin” and the “quantity of ingested microspheres” value [2] was “dramatic increase in the number of ingested microspheres”. For the same substance, the actin filaments organization (Keratinocytes [3]) was “induced actin polymerization around the cell cortex”, the microsphere ingestion [4] was “increased microsphere ingestion” and the “effect on melanosome transfer, measured as the level of pigmentation” value [5] was “no effect on melanosome transfer”. For the same substance, the “intracellular localization of ICAM-1” value (ICAM-1 [6]) was “increased and more diffused cytoplasmic membrane staining, and reduced nuclear membrane staining”, the “number of ingested beads” value [7] was “increased the number of ingested beads” and the “shape of cell podia” value (Keratinocytes [8]) was “podia were increased in number, were somewhat longer, and were much thinner”. For the same substance, the “pigmentation by affecting melanosome transfer” value (MelanoDerm equivalents) was “induced pigmentation”, the effect on phagocytosis (Human keratinocytes [9]; Time of Treatment 1 hour) was “-” and the effect on phagocytosis (Human keratinocytes [9]; Time of Treatment 2 hours) was “-”. For the same substance, the effect on phagocytosis (Human keratinocytes [9]; Time of Treatment 4 hours) was “-”, the effect on phagocytosis (Human keratinocytes [9]; Time of Treatment 6 hours) was “-” and the effect on phagocytosis (Human keratinocytes [9]; Time of Treatment 8 hours) was “-/+”. For the same substance, the effect on phagocytosis (Human keratinocytes [9]; Time of Treatment 16 hours) was “+”, the effect on phagocytosis (Human keratinocytes [9]; Time of Treatment 24 hours) was “+” and the effect on phagocytosis (Human keratinocytes [9]; Time of Treatment 48 hours) was “+”. For the same substance, the “uptake of melanin by keratinocytes” value (Keratinocytes [10]) was “dramatically increases the internalization of melanin and its deposition around the nuclei”, the “number of microspheres ingested” value [11] was “increased” and the “phagocytosis with increasing concentrations” value (Human keratinocytes [12]) was “increased phagocytosis”. The “level of ICAM-1 protein” value (ICAM-1 [13]) was “increased the level of ICAM-1 expression”, the microsphere ingestion (melanocytes) was “no inducible effect on microsphere ingestion” and the dose-response of phagocytosis ([14]; STI 0, 0.01, 0.1 and 1 mg/ml, Compound I 0.01, 0.1 and 1 nM, Figures 4A, 4B) was “increase in phagocytosis”. The “% effect (ingestion)” value ([14]; treated overnight, 100nM Compound I, 5µM SLIGRL, 0.1 mg/ml STI, untreated control = 100, one of three experiments) was 331.6 +/- 5.9%.
For TFLLRNPNDK [TFLLRNPNDK], the “effect on melanosome transfer, measured as the level of pigmentation” value [5] was “no effect on melanosome transfer”.
